The values that follow come from patent US20050158322A1.

Sequences of proteins named here, by UniProt entry; tags and fusion partners are left off. Residues count along the entry.
UniProt P01012, residues 2-386: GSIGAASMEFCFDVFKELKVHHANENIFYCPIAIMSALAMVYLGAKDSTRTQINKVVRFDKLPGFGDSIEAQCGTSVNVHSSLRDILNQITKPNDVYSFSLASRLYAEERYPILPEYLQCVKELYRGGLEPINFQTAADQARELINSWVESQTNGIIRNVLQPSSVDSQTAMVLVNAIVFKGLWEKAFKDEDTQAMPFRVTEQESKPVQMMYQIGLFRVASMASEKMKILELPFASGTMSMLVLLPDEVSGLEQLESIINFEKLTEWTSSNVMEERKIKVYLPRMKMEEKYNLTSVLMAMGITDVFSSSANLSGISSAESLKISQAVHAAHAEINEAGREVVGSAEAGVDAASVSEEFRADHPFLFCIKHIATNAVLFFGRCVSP
UniProt P02769, residues 25-607: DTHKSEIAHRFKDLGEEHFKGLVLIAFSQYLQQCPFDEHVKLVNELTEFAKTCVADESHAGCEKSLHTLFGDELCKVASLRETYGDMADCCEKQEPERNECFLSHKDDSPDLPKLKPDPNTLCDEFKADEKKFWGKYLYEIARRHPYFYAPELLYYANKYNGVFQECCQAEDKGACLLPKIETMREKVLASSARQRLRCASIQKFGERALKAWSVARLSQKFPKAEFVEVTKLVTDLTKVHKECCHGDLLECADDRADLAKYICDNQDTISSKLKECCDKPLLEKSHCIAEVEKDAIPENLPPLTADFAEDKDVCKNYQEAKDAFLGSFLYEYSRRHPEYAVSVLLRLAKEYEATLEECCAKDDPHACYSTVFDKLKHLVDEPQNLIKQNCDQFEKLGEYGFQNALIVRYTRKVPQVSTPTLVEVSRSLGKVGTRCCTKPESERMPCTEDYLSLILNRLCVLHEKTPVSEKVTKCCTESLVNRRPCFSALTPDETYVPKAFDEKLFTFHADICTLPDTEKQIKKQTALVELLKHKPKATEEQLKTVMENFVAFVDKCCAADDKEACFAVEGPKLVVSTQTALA

No constants are given. Whether binding was seen depends on the method and setting.

The target in one experiment is ovalbumine (UniProt P01012). Kind of experiment: condition: periplasm diluted 1:5, 1:10 and 1:20; antigen coated at 10 µg/mL; ELISA on coated polyvinyl plates, detection with Mab 9E10. (In general: ELISA stands for enzyme-linked immunosorbent assay.)
Experiment [1] addresses bovine seroalbumine (BSA, Sigma) (bovine) (UniProt P02769). The experiment is described as above.

B1: monovalent scFv fragment (clone pJG1m-25), produced in E. coli (scFv, not shown: small tags and cut ends)
scFv: EVKLVESGGDLVKPGGSLKFSCAASGFPFNRYAMSWVRQTPEKRLEWVAFISSDGIAYYADSVKGRFTISRDNARNILYLQMSSLRSEDTAMYYCARVYYYGSSYFDYWGQGTTLTVSSEGKSSGSGSESKVDDIVMTQSPKFMSTSVGDRVSVTCKASQNAGTNVAWYQQKPGQSPKALIYSASSRNSGVPDRITGSGSGTDFTLTISNVQSEDLAEYFCQQYNSYPLVTFGAGTKLELK
For B1, the binding result (with ovalbumine; in experiment [1]) was “no binding” each time.
